Laboratory results from patent US20090149377.

What was measured:
Assay in all cases: binding assay
CCT5 (Homo sapiens) = CCT5 (Homo sapiens) (UniProt P48643); conditions: yeast three-hybrid; protein in cells; protein details: GAL4 activation domain fusion; label: 5' 32P (EMSA)
[1] = biological target: DKFZP564M182 (Homo sapiens) (UniProt O76021); conditions: yeast three-hybrid; protein in cells; protein details: GAL4 activation domain fusion; label: 5' 32P (EMSA)
MGC14595 (Homo sapiens) = biological target: T1, MGC14595 (Homo sapiens) (UniProt Q9BRU9); conditions: yeast three-hybrid; protein in cells; protein details: GAL4 activation domain fusion; label: 5' 32P (EMSA)
T1 sequence (looked up, limits assumed): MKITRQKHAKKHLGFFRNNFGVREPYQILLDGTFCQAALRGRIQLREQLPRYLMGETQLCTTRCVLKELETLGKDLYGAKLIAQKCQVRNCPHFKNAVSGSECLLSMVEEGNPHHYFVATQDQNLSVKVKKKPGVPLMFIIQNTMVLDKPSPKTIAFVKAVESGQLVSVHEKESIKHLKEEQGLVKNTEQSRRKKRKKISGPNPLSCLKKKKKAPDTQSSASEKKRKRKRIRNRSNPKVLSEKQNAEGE

[2] = biological target: T2, Nucleostemin (Homo sapiens) (UniProt Q9BVP2); conditions: yeast three-hybrid; protein in cells; protein details: GAL4 activation domain fusion; label: 5' 32P (EMSA)
T2 sequence (looked up, limits assumed): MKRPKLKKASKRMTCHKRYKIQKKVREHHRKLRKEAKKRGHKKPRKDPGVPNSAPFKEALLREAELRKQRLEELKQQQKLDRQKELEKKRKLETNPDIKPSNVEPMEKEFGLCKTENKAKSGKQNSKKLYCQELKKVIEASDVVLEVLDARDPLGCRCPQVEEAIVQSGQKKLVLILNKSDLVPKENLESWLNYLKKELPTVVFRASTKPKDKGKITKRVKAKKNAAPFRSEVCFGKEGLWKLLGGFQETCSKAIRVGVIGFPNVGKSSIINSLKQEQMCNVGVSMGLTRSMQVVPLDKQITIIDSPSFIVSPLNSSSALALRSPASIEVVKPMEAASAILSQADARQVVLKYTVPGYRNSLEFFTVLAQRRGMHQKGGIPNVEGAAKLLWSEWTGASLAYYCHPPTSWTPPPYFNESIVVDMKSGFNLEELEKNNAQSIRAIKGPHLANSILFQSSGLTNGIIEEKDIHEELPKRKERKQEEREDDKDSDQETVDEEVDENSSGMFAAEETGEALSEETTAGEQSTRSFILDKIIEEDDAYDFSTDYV

RPL26 (Homo sapiens) = RPL26 (Homo sapiens) (UniProt P61254); conditions: protein in cells, protein details: GAL4 activation domain fusion (yeast three-hybrid)
RPL26 d1 (Homo sapiens) = RPL26 d1 (Homo sapiens) (UniProt P61254); conditions: binding stated to correlate with p53 induction; assay not specified; protein in cells; protein details: EGFP; label: 5' 32P (EMSA)
RPL26 d2 (Homo sapiens) = RPL26 d2 (Homo sapiens) (UniProt P61254); conditions: bound 5'UTR but did not induce p53; binding assay not specified; protein in cells; protein details: EGFP; label: 5' 32P (EMSA)
RPL26 d4 (Homo sapiens) = RPL26 d4 (Homo sapiens) (UniProt P61254); conditions: binding stated to correlate with p53 induction; assay not specified; protein in cells; protein details: EGFP; label: 5' 32P (EMSA)
RPL26 d5 (Homo sapiens) = RPL26 d5 (Homo sapiens) (UniProt P61254); conditions: binding stated to correlate with p53 induction; assay not specified; protein in cells; protein details: EGFP; label: 5' 32P (EMSA)
RPL26 d7 (Homo sapiens) = RPL26 d7 (Homo sapiens) (UniProt P61254); conditions: binding stated to correlate with p53 induction; assay not specified; protein in cells; protein details: EGFP; label: 5' 32P (EMSA)
[3] = biological target: Ribosomal protein L41 (Homo sapiens) (UniProt P62945); conditions: yeast three-hybrid; protein in cells; protein details: GAL4 activation domain fusion; label: 5' 32P (EMSA)
[4] = biological target: Ribosomal protein L5 (Homo sapiens) (UniProt P46777); conditions: yeast three-hybrid; protein in cells; protein details: GAL4 activation domain fusion; label: 5' 32P (EMSA)
[5] = biological target: Ribosomal protein S13 (Homo sapiens) (UniProt P62277); conditions: yeast three-hybrid; protein in cells; protein details: GAL4 activation domain fusion; label: 5' 32P (EMSA)
[6] = biological target: Ribosomal protein S3a (Homo sapiens) (UniProt P61247); conditions: yeast three-hybrid; protein in cells; protein details: GAL4 activation domain fusion; label: 5' 32P (EMSA)
[7] = biological target: Ribosomal protein S7 (Homo sapiens) (UniProt P62081); conditions: yeast three-hybrid; protein in cells; protein details: GAL4 activation domain fusion; label: 5' 32P (EMSA)

Measured: binding result

GGUUUUCCCCUCCCAUGUGCUCAAGACUGGCGCUAAAAGUUUUGAGCUUCUCAAAAGUCUAGAGCCACCGUCCAGGGAGCAGGUAGCUGCUGGGCUCCGGGGACACUUUGCGUUCGGGCUGGGAGCGUGCUUUCCACGACGGUGACACGCUUCCCUGGAUUGGCAGCCAGACUGCCUUCCGGGUCACUGCCAU [p53 5'UTR (-191 to 2)]
binds: CCT5 (Homo sapiens) | [1] | MGC14595 (Homo sapiens) | [2] | RPL26 (Homo sapiens); yeast three-hybrid, label: 5' 32P (EMSA) | RPL26 d1 (Homo sapiens) | RPL26 d2 (Homo sapiens) | RPL26 d4 (Homo sapiens) | RPL26 d5 (Homo sapiens) | RPL26 d7 (Homo sapiens) | [3] | [4] | [5] | [6] | [7]

UCGGGCUGGGAGCGUGCUUUCCACGACGGUGACACGCUUCCCUGGAUUGGCAGCCAGACUGCCUUCCGGGUCACUGCC [p53 5'UTR -78 to -1]
binds: RPL26 (Homo sapiens); yeast three-hybrid mapping, variant of p53 5'UTR (-191 to 2)

At least one result comes from cells or an extract, where the contact may be indirect. For some of these results: Tags and fusion partners may be left off the protein sequences shown.
